Data: patent US12544431B2 (BCN PEPTIDES, S.A., priority 2019, dated 2026)

Assay: general procedure: Fmoc solid-phase peptide synthesis
Conditions: oxidative folding step

(Pyr-Lys-Arg-Asp-Ser-Ser-Asn-Ser-Cys-Asp-Leu-Pro-Glu-Msa-Lys-NH2)2 (disulfide bridge)
oxidative folding yield: 81% yield
